This is an account of results in publication PMC7039684.

Chains of the proteins cited; added tags and fusions are not shown. Residues count along the entry.
UniProt Q14643: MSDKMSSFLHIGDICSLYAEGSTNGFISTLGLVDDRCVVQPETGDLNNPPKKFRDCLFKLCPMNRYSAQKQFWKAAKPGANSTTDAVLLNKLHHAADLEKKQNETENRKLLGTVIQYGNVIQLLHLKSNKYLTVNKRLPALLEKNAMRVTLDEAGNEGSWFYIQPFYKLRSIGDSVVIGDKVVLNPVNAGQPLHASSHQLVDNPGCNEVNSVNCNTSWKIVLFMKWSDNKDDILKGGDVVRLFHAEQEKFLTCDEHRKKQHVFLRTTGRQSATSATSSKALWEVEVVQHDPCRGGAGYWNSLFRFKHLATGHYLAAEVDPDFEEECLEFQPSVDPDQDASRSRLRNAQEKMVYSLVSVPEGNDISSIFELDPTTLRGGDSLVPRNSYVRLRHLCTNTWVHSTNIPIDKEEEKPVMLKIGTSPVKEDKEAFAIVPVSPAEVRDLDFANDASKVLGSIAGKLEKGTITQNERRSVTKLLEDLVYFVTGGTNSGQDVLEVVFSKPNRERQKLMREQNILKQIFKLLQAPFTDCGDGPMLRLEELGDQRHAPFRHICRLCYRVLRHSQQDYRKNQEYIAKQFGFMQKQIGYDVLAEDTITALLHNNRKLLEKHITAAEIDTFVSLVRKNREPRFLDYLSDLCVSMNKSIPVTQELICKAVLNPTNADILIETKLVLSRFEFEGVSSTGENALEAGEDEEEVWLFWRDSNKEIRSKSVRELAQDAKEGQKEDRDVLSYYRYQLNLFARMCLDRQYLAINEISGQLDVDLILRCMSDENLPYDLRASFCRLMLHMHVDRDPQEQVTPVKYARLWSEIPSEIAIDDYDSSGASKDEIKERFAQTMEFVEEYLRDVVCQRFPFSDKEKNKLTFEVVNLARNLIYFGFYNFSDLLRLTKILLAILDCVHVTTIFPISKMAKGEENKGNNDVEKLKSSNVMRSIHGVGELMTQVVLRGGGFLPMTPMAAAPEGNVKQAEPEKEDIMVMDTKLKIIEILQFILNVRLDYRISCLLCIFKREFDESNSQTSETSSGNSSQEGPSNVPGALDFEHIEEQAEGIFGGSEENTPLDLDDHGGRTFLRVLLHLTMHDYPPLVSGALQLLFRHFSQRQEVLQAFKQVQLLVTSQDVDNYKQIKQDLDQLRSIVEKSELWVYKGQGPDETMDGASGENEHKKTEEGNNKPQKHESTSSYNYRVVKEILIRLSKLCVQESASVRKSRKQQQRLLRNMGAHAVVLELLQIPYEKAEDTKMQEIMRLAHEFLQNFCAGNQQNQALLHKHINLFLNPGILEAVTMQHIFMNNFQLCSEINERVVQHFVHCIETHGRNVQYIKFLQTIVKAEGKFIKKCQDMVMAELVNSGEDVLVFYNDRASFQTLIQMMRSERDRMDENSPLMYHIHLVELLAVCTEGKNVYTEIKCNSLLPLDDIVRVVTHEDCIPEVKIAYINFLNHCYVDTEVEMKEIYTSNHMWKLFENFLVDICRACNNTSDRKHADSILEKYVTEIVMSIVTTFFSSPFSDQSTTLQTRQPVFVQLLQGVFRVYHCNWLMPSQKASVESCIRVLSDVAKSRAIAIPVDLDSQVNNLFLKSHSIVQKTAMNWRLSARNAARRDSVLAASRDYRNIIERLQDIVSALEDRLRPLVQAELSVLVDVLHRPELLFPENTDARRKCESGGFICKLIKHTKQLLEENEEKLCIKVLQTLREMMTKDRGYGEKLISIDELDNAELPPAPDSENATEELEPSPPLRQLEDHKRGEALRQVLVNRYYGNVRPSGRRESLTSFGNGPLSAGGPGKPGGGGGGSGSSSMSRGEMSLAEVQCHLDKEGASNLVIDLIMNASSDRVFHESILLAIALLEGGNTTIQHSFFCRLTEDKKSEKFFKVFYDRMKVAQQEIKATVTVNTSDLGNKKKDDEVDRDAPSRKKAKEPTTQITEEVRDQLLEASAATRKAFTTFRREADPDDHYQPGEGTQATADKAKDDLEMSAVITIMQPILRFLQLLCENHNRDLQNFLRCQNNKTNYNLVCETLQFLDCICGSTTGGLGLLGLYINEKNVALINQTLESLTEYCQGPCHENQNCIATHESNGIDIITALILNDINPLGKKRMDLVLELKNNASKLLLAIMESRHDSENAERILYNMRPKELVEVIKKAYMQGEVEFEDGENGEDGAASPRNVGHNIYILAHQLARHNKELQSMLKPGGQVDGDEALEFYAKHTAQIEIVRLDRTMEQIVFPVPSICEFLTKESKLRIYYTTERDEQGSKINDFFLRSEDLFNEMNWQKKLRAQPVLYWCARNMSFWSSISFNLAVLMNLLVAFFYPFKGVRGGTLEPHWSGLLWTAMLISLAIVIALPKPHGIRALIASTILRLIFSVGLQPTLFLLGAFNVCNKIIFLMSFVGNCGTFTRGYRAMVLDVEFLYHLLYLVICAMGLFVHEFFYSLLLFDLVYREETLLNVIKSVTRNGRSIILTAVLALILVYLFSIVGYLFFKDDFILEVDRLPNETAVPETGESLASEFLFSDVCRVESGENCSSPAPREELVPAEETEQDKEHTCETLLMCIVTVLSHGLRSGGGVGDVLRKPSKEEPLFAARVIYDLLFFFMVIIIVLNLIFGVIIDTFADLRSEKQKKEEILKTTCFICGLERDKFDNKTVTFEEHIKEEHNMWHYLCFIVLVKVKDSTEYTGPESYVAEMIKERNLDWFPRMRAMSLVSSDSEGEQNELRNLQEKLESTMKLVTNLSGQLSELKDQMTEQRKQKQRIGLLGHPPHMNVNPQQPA
UniProt Q16611: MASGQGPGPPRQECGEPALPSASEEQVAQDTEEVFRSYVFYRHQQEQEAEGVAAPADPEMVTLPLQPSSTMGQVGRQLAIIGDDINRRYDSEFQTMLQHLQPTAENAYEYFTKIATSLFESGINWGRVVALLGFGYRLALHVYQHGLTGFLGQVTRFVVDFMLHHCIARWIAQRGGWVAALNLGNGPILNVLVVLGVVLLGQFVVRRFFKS
UniProt P16056, residues 1001-1374: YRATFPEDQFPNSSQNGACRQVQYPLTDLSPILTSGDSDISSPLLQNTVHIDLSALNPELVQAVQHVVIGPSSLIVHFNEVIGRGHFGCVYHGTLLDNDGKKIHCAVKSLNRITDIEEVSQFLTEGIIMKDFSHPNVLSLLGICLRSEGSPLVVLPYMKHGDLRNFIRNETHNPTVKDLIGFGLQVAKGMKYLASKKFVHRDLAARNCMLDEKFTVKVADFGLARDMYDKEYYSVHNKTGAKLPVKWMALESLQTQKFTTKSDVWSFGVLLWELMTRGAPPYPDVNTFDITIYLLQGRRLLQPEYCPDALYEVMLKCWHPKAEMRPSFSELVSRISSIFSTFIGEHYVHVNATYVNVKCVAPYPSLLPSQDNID

What all share (experiment): FRET or BRET; FLIM-FRET by TCSPC in live co-transfected HEK293T cells, 37°C, L-15 medium; lifetime of the mT2 donor against donor alone; SYFP2 or EYFP fusion as acceptor
One assay addresses IP3R1-EYFP (UniProt Q14643).
In a further assay the target is T1, BOK-mTurquoise2 (UniProt Q9UMX3).
T1 sequence: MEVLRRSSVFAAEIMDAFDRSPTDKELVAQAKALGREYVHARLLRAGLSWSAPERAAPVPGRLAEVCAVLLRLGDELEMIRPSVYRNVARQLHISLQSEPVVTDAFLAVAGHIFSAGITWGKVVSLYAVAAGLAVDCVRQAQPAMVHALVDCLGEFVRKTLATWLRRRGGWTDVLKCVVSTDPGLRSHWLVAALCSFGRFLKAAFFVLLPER

The next assay has as its target T2, BOK-SYFP2 (UniProt Q9UMX3).
T2 sequence: T1 sequence

No constants are given. Whether binding was seen depends on the method and setting. Binding seen in cells or lysates may run through a third protein. Some binding calls cover weakened binding; strength is not graded here.

For the substance “BAK-mTurquoise2 (from UniProt Q16611 1-211)”, the binding result in the assay with IP3R1-EYFP was “no binding”. On to “BCL-XL-SYFP2 (from UniProt Q07817-1 1-233)”, for which, in the assay with BOK-mTurquoise2, the binding entry was “binds”. In the case of “p40MET-mTurquoise2 (from UniProt P16056 1001-1374) (domain or fragment)”, the binding result with BOK-SYFP2 and in the assay with IP3R1-EYFP was “no binding” throughout.
